Reference: PubChem BioAssay AID1053208 (Peter MacCallum Cancer Centre, 2014)

Purpose: 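Find knock-downs that sensitise mouse osteosarcoma cells to doxorubicin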 (primary screen)
Cells: mouse osteosarcoma cells, early-passage culture from an engineered mouse model of fibroblastic bone tumour
Reagent: siRNA pool against mouse genes, 40 nM
Duration: about 120 h (48 h before drug, then 72 h with drug)
Challenge: doxorubicin 100 nM for 72 h, roughly 30-40% inhibitory dose
Detection: 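Viability read as ATP luminescence after 72 h of 100 nM doxorubicin or none, duplicate wells averaged, scaled to non-targeting siRNA, then expressed as robust z-scores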
Reading the numbers: viability z-score with doxorubicin and doxorubicin viability vs non-targeting: higher = more viable cells under doxorubicin; viability z-score without drug: higher = more viable cells with knock-down alone; z-score of drug to no-drug ratio: higher = less drug sensitisation by knock-down
Rule for the call: 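Called active if knock-down leaves viability unchanged without drug (z within -2 to 2) but lowers it with doxorubicin (z at or under -2)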
The whole screen tested about 17,000 reagents; this is a random part of them. 788 of them (4.7%) count as active. 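Calls rest on z-score classes alone; an extra cut-off of viability at most 70% of control was not applied to them.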

no.	target	combined z-score class	viability z-score with doxorubicin	viability z-score without drug	z-score of drug to no-drug ratio	doxorubicin viability vs non-targeting	Call
1	Vmn2r42	no change with or without drug	-1.35	-0.84	-0.79	0.82	inactive
2	Dohh	low cell count with doxorubicin only	-2.25	-1.85	-1.12	0.74	active
3	Nwd1	no change with or without drug	0.45	0.51	0.22	0.98	inactive
4	Ccdc85b	no change with or without drug	0.22	-0.51	0.67	0.96	inactive
5	Rrp36	low cell count without drug only	-1.57	-2.19	0	0.8	inactive
6	Ube2i	low cell count with and without drug	-6.3	-5.23	-4.38	0.38	inactive
7	Mknk1	no change with or without drug	0.9	-1.35	2.14	1.02	inactive
8	Vmn1r66	no change with or without drug	-0.56	-1.18	0.34	0.89	inactive

Only “combined z-score class” (2 entries from above):
Mknk1 = no change with or without drug
Vmn1r66 = no change with or without drug

Additional reagents follow:
no.	target	combined z-score class	viability z-score with doxorubicin	viability z-score without drug	z-score of drug to no-drug ratio	doxorubicin viability vs non-targeting	Call
9	P4ha3	no change with or without drug	0.34	0	0.45	0.97	inactive
10	Fsd1	no change with or without drug	-1.8	-0.51	-1.46	0.78	inactive
11	Vezf1	no change with or without drug	1.12	0.51	0.9	1.04	inactive
12	Scarb1	high cell count without drug only	1.57	2.19	0.22	1.08	inactive
13	Mrpl51	no change with or without drug	-1.57	-1.69	-0.45	0.8	inactive
14	Or2v1	no change with or without drug	-0.34	-0.17	-0.11	0.91	inactive
15	Tox4	no change with or without drug	-0.79	0.34	-0.9	0.87	inactive
16	Cenph	low cell count with doxorubicin only	-2.02	-0.84	-1.57	0.76	active
17	Sec14l2	no change with or without drug	-1.24	-0.51	-0.9	0.83	inactive
18	Hdgfl2	no change with or without drug	-0.67	0	-0.56	0.88	inactive
19	Hcls1	no change with or without drug	0.67	1.52	-0.22	1	inactive
20	Heatr5a	no change with or without drug	0.45	0.34	0.34	0.98	inactive
